# Over roughly 33,000 sequences, “E-score (-0.5 to 0.5)” has its median near -0.016; the highest 2% begin near 0.3. This is one part of the list.
# Biological target: T1, Yer184c (UniProt P39961)
# T1 sequence: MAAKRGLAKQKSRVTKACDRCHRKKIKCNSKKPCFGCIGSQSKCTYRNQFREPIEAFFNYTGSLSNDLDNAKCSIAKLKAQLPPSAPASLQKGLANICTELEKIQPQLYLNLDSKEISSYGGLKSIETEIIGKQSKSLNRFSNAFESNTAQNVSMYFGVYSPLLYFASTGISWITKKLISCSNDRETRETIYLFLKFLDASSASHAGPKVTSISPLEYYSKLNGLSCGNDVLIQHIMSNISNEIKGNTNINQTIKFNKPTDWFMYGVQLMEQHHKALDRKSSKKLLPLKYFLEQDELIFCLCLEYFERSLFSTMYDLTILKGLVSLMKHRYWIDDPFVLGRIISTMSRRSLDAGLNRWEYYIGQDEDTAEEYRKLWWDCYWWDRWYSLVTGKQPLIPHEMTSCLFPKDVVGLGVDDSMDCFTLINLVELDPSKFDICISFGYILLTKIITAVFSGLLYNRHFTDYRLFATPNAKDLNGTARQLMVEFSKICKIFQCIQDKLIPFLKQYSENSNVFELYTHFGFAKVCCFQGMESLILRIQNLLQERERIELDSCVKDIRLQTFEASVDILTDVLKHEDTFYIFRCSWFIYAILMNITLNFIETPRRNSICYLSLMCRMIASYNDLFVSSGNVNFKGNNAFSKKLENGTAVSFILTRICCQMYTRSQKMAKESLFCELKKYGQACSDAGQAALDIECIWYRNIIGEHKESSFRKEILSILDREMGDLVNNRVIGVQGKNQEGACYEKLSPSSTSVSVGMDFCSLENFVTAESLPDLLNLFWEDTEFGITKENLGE
# Test: PBM E-score (8-mer binding enrichment) (E-score (-0.5 to 0.5)); higher = stronger / more preferred TF binding
# Conditions: protein concentration: 100 nM; construct: GST-full length
# Procedure, shortened: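 Detection of bound protein used fluorescent anti-GST, with scans normalised by masliner. The proteins were GST-tagged yeast transcription factors applied at about 100-200 nM to universal all-10-mer Agilent arrays made double-stranded by primer extension. Each ungapped eight-base word, pooled with its reverse complement, was scored with an E-score from the Universal PBM Analysis Suite.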
row,Sequence,PBM E-score
1,ACCACAGG,-0.253
2,AGATAGAT,-0.132
3,GGCTATAA,0.133
4,ATCCTTAG,-0.165
5,ATCTCACG,0.0291
6,AACCTCAT,0.105
7,GCAACAGA,0.157
8,ATGAATGG,-0.0399
9,ACGCGTAA,-0.0625
10,CGCAATTC,0.044
11,AGGCTCAA,-0.157
12,ACACGGCG,0.0813
13,CGGACCAG,0.185
14,ACCCGGAT,0.185
15,CAAAGCGC,0.0549
16,ATGTATAC,0.0697
17,CATTGATC,0.0709
18,GAACTTTA,0.0808
19,CGGGCCTA,-0.0419
20,GACGAGCC,-0.0865
21,CGGCCACA,0.194
22,GCATGCTA,-0.205

# 4 neighbouring entries already listed, quoted:
row,Sequence,PBM E-score
3,GGCTATAA,0.133
4,ATCCTTAG,-0.165
5,ATCTCACG,0.0291
6,AACCTCAT,0.105

# Carrying on.

row,Sequence,PBM E-score
1,ACGACCCA,-0.105
2,GTATACGA,0.0948
3,AATGAACA,0.133
4,CAAAAGGC,0.0225
5,CATCCGGG,0.223
6,TTAAACAA,0.0594
7,CATTTTCC,0.108
8,GGCACGCC,-0.18
9,GTTCGCCA,-0.0229
10,GCCCGCAA,0.117
11,AAAGGACT,-0.113
12,ACAGATAT,0.0496
13,AAACTAAG,0.139
14,ACGTTTCG,0.0977
15,CATCAAAA,0.133
16,GAATAGGA,0.0511
17,ATCATCAT,0.0824
18,CGGAGCAA,0.228
19,CGGATCTA,0.179
20,CTCTTACA,-0.118
21,ACTCCCGC,0.0159
22,ACACGCCA,-0.164

row,Sequence,PBM E-score
1,ATGTAAAC,0.0984
2,TAGAGCGA,-0.27
3,TACGAAAA,0.272
4,ACTAAAAC,0.0746
5,AGCTGTCC,-0.212
6,TACGCCTA,-0.0765
7,AGAGTTTG,0.0668
8,GGGTGTCA,-0.0684
9,CCCCGACC,-0.237
10,AATAATGC,0.136
11,CGGCAACA,0.271
12,CGTCACCA,-0.164
13,AAACCTGC,-0.0365
14,GCTTGCAA,0.0495
15,TAATCTCA,-0.0259
16,ACGGGCTA,-0.205
17,CTTCTGAA,0.0142
18,ACATGGCG,-0.266
19,AAGTTAAA,-0.00852
20,ATAGGTAG,-0.245
21,CCGCGACG,0.0786
22,AAAAAGAG,-0.0342

row,Sequence,PBM E-score
1,CGGGACGA,0.111
2,ACTTAAGC,0.0177
3,CCAGGGCC,-0.289
4,GGAATGGA,-0.0367
5,GCGAATAA,0.0477
6,AGACCGAG,0.157
7,AAGTCCAG,-0.0117
8,ACGATAAG,-0.018
9,AATTCTAC,0.174
10,CTGGGAAG,-0.145
11,AAAGGGCC,-0.231
12,CAAATGTC,-0.0295
13,TCATTTCA,0.103
14,CTGAGAAC,0.0807
15,ATTGGCGC,0.0309
16,GGGGTATA,-0.199
17,GGACAAAA,0.297
18,CGGCATTC,0.224
19,AGCCCACA,-0.263
20,ACATGGAC,-0.128
